{
  "source": "ChEMBL document CHEMBL4359816",
  "about": "“Discovery and Optimization of Quinolinone Derivatives as Potent, Selective, and Orally Bioavailable Mutant Isocitrate Dehydrogenase 1 (mIDH1) Inhibitors” (J Med Chem, 2019)",
  "key": {"[1]": {"test": "Metabolic stability in human liver microsomes assessed as compound remaining after 30 mins", "format": "ADME, Microsome", "conditions": "read-out: Stability"}, "[2]": {"test": "Metabolic stability in mouse liver microsomes assessed as compound remaining after 30 mins", "format": "ADME, Microsome", "conditions": "read-out: Stability"}, "[3]": {"test": "Kinetic solubility of the compound", "format": "physicochemical", "conditions": "read-out: Kinetic_solubility"}, "[4]": {"test": "Octanol/aqueous buffer partition coefficient, log D of the compound at pH 7.4", "format": "physicochemical"}},
  "data": [
    {"compound": "Cc1nc(N[C@@H](C)c2cc3cc(Cl)ccc3[nH]c2=O)ncc1C#N", "values": [
      {"measurement": "remaining at 0.5 h", "setting": "[1]", "result": 97, "unit": "%"},
      {"measurement": "remaining at 0.5 h", "setting": "[2]", "result": 98, "unit": "%"},
      {"measurement": "solubility kinetic", "setting": "[3]", "result": 22.4, "unit": "µM"},
      {"measurement": "logD", "setting": "[4]", "result": 3.11}
    ]}
  ]
}
